Here are results for 39 targets from the supplement of paper PMC10849652.

Protein sequences, listed by entry. Tags and fused reporters are not part of them. Lines headed by an entry give the natural chain unless they say otherwise; changes in a name come on top.
UniProt P03928: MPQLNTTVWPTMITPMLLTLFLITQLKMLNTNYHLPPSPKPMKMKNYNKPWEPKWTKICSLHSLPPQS
UniProt Q2M296: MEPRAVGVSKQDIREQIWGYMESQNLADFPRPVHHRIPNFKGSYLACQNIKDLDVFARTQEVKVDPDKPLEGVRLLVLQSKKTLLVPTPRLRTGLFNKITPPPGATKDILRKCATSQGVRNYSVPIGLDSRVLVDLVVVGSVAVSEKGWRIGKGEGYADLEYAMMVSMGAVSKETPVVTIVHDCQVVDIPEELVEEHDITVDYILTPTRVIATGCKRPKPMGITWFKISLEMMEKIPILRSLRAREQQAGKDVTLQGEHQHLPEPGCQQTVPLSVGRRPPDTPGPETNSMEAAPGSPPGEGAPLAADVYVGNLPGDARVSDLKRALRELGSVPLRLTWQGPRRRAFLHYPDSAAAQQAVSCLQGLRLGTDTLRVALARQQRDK
UniProt Q9UGC7: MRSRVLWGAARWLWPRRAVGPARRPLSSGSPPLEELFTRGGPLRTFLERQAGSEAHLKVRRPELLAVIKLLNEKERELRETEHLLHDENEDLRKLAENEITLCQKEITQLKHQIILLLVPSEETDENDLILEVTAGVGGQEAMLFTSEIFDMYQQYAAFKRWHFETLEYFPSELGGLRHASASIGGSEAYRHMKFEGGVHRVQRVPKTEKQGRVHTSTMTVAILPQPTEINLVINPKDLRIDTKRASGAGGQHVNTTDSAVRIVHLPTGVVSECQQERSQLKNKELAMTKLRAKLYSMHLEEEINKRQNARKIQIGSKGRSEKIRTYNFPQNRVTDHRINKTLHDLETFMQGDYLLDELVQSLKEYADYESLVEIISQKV
UniProt Q9Y3D2: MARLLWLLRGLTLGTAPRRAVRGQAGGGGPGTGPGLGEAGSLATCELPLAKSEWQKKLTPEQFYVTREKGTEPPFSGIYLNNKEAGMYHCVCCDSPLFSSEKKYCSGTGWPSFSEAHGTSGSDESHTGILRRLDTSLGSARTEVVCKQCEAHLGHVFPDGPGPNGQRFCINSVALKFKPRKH
UniProt O94776: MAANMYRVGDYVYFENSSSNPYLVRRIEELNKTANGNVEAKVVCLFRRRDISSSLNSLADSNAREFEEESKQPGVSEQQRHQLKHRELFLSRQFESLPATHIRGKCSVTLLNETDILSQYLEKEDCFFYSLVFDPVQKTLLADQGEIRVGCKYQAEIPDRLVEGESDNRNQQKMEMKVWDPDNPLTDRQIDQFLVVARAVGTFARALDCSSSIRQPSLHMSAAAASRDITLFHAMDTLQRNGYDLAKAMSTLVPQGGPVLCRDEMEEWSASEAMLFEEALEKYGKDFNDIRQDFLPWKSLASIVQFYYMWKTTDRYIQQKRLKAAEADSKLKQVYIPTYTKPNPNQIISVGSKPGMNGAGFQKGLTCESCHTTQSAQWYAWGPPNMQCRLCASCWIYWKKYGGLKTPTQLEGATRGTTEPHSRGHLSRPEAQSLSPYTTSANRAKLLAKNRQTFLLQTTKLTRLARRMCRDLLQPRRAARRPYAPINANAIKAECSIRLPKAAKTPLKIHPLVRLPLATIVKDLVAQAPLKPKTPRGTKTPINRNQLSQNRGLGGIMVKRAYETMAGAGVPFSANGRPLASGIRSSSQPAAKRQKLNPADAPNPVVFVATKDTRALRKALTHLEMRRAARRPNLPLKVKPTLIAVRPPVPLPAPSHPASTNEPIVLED
UniProt P52701: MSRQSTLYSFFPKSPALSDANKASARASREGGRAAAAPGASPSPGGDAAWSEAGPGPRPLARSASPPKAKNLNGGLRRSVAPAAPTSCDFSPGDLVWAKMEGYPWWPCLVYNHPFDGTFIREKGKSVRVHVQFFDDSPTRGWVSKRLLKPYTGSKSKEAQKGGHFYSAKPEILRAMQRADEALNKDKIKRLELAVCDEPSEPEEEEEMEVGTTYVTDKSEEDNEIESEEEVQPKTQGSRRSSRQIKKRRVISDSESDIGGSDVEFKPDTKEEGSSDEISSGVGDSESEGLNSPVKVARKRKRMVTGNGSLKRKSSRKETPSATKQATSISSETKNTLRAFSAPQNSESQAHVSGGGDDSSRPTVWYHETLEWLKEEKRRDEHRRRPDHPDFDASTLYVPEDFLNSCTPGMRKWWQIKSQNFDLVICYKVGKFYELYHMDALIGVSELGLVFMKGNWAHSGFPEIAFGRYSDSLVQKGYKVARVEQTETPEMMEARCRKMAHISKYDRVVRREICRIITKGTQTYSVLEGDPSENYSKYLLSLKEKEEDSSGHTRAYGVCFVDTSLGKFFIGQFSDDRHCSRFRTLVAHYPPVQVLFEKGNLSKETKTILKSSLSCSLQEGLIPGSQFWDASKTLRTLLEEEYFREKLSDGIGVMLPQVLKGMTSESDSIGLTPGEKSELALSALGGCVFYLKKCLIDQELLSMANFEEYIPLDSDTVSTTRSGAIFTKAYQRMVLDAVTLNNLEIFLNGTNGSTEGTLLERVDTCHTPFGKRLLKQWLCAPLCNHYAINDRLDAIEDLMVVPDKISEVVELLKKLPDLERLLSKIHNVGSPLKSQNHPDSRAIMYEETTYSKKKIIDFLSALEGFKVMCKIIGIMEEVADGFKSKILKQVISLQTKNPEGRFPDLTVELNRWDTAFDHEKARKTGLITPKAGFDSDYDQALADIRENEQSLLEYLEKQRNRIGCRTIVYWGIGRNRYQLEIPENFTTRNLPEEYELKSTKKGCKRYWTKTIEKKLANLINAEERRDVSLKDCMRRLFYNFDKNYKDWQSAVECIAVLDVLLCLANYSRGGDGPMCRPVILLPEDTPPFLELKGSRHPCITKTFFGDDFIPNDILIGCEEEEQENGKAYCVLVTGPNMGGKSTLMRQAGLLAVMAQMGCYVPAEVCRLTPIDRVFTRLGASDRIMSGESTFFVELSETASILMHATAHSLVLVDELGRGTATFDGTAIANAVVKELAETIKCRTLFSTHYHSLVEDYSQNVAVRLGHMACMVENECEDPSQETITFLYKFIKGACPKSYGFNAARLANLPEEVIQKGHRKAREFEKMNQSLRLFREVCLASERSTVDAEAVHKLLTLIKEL
UniProt Q15800: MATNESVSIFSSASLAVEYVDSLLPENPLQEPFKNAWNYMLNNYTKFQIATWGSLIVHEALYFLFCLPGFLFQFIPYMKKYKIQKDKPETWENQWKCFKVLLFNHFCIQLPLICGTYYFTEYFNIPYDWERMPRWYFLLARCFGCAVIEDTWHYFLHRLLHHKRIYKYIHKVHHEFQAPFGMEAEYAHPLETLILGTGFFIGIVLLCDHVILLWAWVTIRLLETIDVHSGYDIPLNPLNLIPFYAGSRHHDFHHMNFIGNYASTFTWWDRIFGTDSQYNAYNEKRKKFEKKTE
UniProt Q96DH6: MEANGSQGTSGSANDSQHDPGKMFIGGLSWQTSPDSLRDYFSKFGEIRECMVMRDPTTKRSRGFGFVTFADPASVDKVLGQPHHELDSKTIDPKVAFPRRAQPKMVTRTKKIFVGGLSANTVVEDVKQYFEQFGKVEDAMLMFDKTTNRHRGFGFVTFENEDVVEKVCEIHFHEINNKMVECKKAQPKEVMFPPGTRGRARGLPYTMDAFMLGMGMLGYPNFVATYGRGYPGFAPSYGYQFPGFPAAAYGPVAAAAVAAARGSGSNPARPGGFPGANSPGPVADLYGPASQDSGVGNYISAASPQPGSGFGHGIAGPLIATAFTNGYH
UniProt Q96E11: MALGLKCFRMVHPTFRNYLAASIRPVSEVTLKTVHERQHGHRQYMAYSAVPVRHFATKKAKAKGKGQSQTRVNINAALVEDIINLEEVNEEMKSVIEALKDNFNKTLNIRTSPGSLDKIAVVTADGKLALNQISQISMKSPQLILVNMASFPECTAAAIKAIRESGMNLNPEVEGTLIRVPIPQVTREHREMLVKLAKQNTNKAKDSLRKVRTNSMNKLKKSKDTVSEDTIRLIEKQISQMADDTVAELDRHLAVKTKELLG
UniProt Q15390: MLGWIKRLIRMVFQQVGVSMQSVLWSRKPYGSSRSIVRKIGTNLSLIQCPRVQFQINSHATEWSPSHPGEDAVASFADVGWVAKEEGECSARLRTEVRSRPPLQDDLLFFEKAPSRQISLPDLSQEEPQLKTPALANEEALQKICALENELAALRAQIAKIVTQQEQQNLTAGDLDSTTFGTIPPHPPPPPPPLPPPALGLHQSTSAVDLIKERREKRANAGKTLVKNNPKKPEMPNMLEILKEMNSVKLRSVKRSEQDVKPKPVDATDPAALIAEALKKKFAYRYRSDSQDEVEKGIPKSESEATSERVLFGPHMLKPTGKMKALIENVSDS
UniProt Q9P0P8: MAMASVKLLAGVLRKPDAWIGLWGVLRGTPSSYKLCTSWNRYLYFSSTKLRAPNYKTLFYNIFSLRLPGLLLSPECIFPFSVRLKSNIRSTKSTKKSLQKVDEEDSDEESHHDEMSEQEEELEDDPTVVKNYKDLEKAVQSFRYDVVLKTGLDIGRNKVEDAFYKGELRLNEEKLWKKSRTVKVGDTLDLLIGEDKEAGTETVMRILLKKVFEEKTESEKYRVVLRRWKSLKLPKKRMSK
MTHFD1, A0A384N5Y3, UniProt A0A384N5Y3, whole entry, looked up: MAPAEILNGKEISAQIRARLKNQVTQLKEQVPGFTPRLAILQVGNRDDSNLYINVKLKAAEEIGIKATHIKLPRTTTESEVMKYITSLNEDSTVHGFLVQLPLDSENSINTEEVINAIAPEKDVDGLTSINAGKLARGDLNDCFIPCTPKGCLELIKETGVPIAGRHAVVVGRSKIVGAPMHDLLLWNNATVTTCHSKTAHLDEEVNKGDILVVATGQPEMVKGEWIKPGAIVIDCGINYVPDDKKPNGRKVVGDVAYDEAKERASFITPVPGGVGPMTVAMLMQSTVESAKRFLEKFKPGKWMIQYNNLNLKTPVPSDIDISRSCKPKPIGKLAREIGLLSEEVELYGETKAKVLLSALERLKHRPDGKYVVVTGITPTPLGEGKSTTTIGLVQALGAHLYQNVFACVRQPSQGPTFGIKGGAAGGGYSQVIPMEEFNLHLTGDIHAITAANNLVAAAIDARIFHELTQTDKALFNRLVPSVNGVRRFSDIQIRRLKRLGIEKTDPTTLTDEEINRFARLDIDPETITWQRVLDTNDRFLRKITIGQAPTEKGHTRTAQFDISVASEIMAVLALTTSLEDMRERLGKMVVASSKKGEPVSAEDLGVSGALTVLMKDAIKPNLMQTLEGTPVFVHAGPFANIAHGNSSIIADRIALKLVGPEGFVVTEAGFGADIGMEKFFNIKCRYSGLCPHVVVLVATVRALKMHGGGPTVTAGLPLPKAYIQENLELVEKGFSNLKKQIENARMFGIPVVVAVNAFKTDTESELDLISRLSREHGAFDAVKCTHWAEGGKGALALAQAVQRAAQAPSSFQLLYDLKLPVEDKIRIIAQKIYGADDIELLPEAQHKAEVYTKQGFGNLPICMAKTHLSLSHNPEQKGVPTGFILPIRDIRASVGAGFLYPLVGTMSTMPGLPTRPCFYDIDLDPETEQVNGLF
UniProt P03905, whole entry, looked up: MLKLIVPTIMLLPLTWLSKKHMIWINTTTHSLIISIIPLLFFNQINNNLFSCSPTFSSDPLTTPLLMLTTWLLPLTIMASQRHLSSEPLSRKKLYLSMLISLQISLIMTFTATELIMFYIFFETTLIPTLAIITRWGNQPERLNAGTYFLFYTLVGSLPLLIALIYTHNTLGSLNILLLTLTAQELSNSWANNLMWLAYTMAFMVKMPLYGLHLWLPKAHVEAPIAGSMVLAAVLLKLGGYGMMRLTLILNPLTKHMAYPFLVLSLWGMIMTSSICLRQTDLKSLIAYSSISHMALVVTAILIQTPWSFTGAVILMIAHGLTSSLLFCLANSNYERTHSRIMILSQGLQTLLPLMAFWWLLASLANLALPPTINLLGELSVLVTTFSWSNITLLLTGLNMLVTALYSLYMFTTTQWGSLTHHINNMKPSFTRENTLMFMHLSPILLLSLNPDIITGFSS
UniProt Q9Y6C9: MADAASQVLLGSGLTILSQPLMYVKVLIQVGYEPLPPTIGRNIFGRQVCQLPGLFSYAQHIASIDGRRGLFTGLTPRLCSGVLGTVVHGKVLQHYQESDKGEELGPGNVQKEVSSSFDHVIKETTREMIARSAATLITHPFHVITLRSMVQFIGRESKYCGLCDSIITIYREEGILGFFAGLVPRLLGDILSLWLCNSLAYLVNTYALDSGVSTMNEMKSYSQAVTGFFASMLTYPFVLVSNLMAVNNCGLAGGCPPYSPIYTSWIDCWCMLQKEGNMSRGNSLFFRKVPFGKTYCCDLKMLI
UniProt P13640: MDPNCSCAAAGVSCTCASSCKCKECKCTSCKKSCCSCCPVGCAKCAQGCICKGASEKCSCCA

The other results are listed elsewhere or left out.

Compound in the first assay: CN1CCc2c(c3ccccc3n2Cc2ccc(C(=O)NO)cc2)C1 [Tubastatin A]
The experiment in a line: log2 fold change, soluble protein after heating vs DMSO (PISA); higher = thermal stabilisation; K562 lysate, 10 uM; active = over 0.2 and 3.5 SD of the protein, either way, in both replicates (recomputed). Put shortly:
(§1)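 Thermal stability, expressed as log-two fold change relative to solvent controls, is given from duplicates. Crude K562 extract in PBS pH 7.4 with 1 mM MgCl2, at 1 mg/mL protein, was treated with 10 μM compound for 30 min and heated in aliquots for 3 min across 48°C-58°C. After pooling, adjustment to 0.5% NP-40 at 4°C and centrifugation at 21,000xg for 90 min, supernatant protein was measured by TMTpro 16plex LC-MS/MS with channel sums equalised.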
As to MT-ATP8 (UniProt P03928), the log2 fold change was inactive: 0.072.

Regarding MRPL55 isoform 2 (UniProt Q7Z7F7), the log2 fold change is inactive: -0.029.

Take MT-CO1 (UniProt P00395): the log2 fold change is inactive: 0.078.

With MRPL50 (UniProt Q8N5N7), the log2 fold change is inactive: 0.057.

Consider MTHFSD isoform 3 (UniProt Q2M296), for which the log2 fold change was inactive: 0.027.

Regarding MTRF1L (UniProt Q9UGC7), the log2 fold change is inactive: 0.031.

In the case of MSRB2 (UniProt Q9Y3D2), the log2 fold change is inactive: 0.033.

As for MRPS14 (UniProt O60783), the log2 fold change was inactive: -0.037.

In the case of MRPL9 (UniProt Q9BYD2), the log2 fold change was inactive: -0.019.

For MRPL35 (UniProt Q9NZE8), the log2 fold change is inactive: -0.226.

MRPS26 (UniProt Q9BYN8): the log2 fold change was inactive: 0.044.

On to MRPS9 (UniProt P82933), for which the log2 fold change is inactive: -0.036.

Regarding MTA2 (UniProt O94776), the log2 fold change is inactive: -0.049.

Consider MSH6 (UniProt P52701), for which the log2 fold change was inactive: -0.17.

Compound in the next assay: CNC(=O)C1=CC=CC=C1NC2=NC(=NC=C2Cl)NC3=C(C=C(C=C3)N4CCOCC4)OC
The description is as above. Put shortly: as §1
As for MTCL1 (UniProt Q9Y4B5), the log2 fold change is inactive: -0.063.

For MRPS23 (UniProt Q9Y3D9), the log2 fold change is inactive: -0.005.

As to MTMR1 (UniProt Q13613), the log2 fold change is inactive: -0.015.

With MSMO1 (UniProt Q15800), the log2 fold change is inactive: 0.073.

For MSI2 (UniProt Q96DH6), the log2 fold change is inactive: -0.04.

Consider MRPS11 (UniProt P82912), for which the log2 fold change was inactive: 0.031.

Regarding MTOR (UniProt P42345), the log2 fold change was inactive: -0.038.

With MRPL37 (UniProt Q9BZE1), the log2 fold change is inactive: 0.006.

Take MRPL38 (UniProt Q96DV4): the log2 fold change was inactive: 0.039.

Turning to MRPS27 isoform 2 (UniProt Q92552), the log2 fold change is inactive: 0.008.

Regarding MRRF (UniProt Q96E11), the log2 fold change is inactive: 0.

Regarding MRPS6 (UniProt P82932), the log2 fold change was inactive: 0.017.

Take MRPL43 isoform 4 (UniProt Q8N983): the log2 fold change was inactive: -0.031.

With MTA1 (UniProt Q13330), the log2 fold change was inactive: 0.013.

Consider MTFR1 (UniProt Q15390), for which the log2 fold change was inactive: 0.039.

Take MRPS16 (UniProt Q9Y3D3): the log2 fold change was inactive: 0.015.

As to MTRR isoform 1 (UniProt Q9UBK8), the log2 fold change was inactive: 0.005.

As for MTRES1 (UniProt Q9P0P8), the log2 fold change was inactive: -0.003.

MTHFD1, A0A384N5Y3: the log2 fold change was inactive: -0.01.

MT-ND4 (UniProt P03905): the log2 fold change was inactive: -0.014.

As for MTCH2 (UniProt Q9Y6C9), the log2 fold change is inactive: 0.043.

Turning to MRPS7 (UniProt Q9Y2R9), the log2 fold change is inactive: 0.021.

With MTM1 (UniProt Q13496), the log2 fold change is inactive: 0.027.

In the case of MT-ATP8 (UniProt P03928), the log2 fold change was inactive: 0.08.

With MRPL55 isoform 2 (UniProt Q7Z7F7), the log2 fold change was inactive: 0.047.

Turning to MT-CO1 (UniProt P00395), the log2 fold change was inactive: 0.102.

With MRPL50 (UniProt Q8N5N7), the log2 fold change is inactive: 0.046.

For MTHFSD isoform 3 (UniProt Q2M296), the log2 fold change is inactive: -0.011.

Turning to MTRF1L (UniProt Q9UGC7), the log2 fold change was inactive: 0.022.

As for MSRB2 (UniProt Q9Y3D2), the log2 fold change is inactive: 0.014.

Turning to MRPL9 (UniProt Q9BYD2), the log2 fold change is inactive: 0.048.

Take MRPL35 (UniProt Q9NZE8): the log2 fold change is inactive: 0.01.

Regarding MRPS26 (UniProt Q9BYN8), the log2 fold change is inactive: -0.043.

Turning to MRPS9 (UniProt P82933), the log2 fold change was inactive: 0.004.

For the target MTA2 (UniProt O94776), the log2 fold change was inactive: -0.002.

Regarding MT1G (UniProt P13640), the log2 fold change is inactive: 0.186.

With MSH6 (UniProt P52701), the log2 fold change is inactive: 0.009.

Compound in another assay: CNC(=O)c1ccc(Nc2ncc(C(F)(F)F)c(NCc3nccnc3N(C)S(C)(=O)=O)n2)cc1 [defactinib]
Described as above. Put shortly: as §1
Take MTCL1 (UniProt Q9Y4B5): the log2 fold change was inactive: -0.039.

Consider MRPS23 (UniProt Q9Y3D9), for which the log2 fold change is inactive: -0.034.

On to MTMR1 (UniProt Q13613), for which the log2 fold change is inactive: 0.015.

For the target MSMO1 (UniProt Q15800), the log2 fold change is inactive: -0.085.

As for MSI2 (UniProt Q96DH6), the log2 fold change is inactive: 0.076.

Turning to MRPS11 (UniProt P82912), the log2 fold change is inactive: -0.008.

MTOR (UniProt P42345): the log2 fold change was inactive: 0.01.

Turning to MRPL37 (UniProt Q9BZE1), the log2 fold change was inactive: 0.046.

Take MRPL38 (UniProt Q96DV4): the log2 fold change is inactive: 0.01.

On to MRPS27 isoform 2 (UniProt Q92552), for which the log2 fold change was inactive: 0.032.

As to MRRF (UniProt Q96E11), the log2 fold change was inactive: 0.023.

Regarding MRPS6 (UniProt P82932), the log2 fold change is inactive: -0.044.

For MRPL43 isoform 4 (UniProt Q8N983), the log2 fold change was inactive: -0.019.

Turning to MTA1 (UniProt Q13330), the log2 fold change is inactive: 0.008.

Turning to MTFR1 (UniProt Q15390), the log2 fold change was inactive: -0.009.

For MRPS16 (UniProt Q9Y3D3), the log2 fold change was inactive: -0.034.

With MTRR isoform 1 (UniProt Q9UBK8), the log2 fold change is inactive: 0.019.

For the target MTRES1 (UniProt Q9P0P8), the log2 fold change was inactive: 0.018.

As for MTHFD1, A0A384N5Y3, the log2 fold change was inactive: 0.03.

Consider MT-ND4 (UniProt P03905), for which the log2 fold change was inactive: 0.127.

As for MTCH2 (UniProt Q9Y6C9), the log2 fold change is inactive: -0.003.

On to MRPS7 (UniProt Q9Y2R9), for which the log2 fold change was inactive: 0.003.

As to MTM1 (UniProt Q13496), the log2 fold change was inactive: -0.007.

Turning to MT-ATP8 (UniProt P03928), the log2 fold change was inactive: 0.017.

As for MRPL55 isoform 2 (UniProt Q7Z7F7), the log2 fold change is inactive: -0.047.

Regarding MT-CO1 (UniProt P00395), the log2 fold change was inactive: -0.001.

As for MRPS21 (UniProt P82921), the log2 fold change is inactive: 0.056.

MRPL50 (UniProt Q8N5N7): the log2 fold change was inactive: 0.111.

Take MTHFSD isoform 3 (UniProt Q2M296): the log2 fold change was inactive: 0.05.

As for MTRF1L (UniProt Q9UGC7), the log2 fold change was inactive: -0.128.

For MSRB2 (UniProt Q9Y3D2), the log2 fold change is inactive: 0.035.

Take MRPS14 (UniProt O60783): the log2 fold change is inactive: 0.068.

As to MRPL9 (UniProt Q9BYD2), the log2 fold change was inactive: 0.035.

As for MRPL35 (UniProt Q9NZE8), the log2 fold change was inactive: 0.014.

Take MRPS26 (UniProt Q9BYN8): the log2 fold change was inactive: -0.045.

Consider MRPS9 (UniProt P82933), for which the log2 fold change was inactive: 0.008.

Consider MTA2 (UniProt O94776), for which the log2 fold change is inactive: 0.016.

On to MT1G (UniProt P13640), for which the log2 fold change is inactive: 0.023.

Take MSH6 (UniProt P52701): the log2 fold change is inactive: 0.012.
